According to PubChem BioAssay AID1347076 (National Center for Advancing Translational Sciences (NCATS), 2019):
Screen size: about 400,000 compounds; about 13,000 (3.2%) were called active. Inconclusive results, whose numbers are uncertain, are shown with a selection of clear calls. Calls follow the shape of the dose curve; as a rule, active = well fitted cell-killing curve with a large enough effect; inconclusive = small, poorly fitted or top-dose-only effect, or effect the other way; inactive = flat fitted curve, though single readings scatter. Potencies beside an inconclusive call are fits to weak or partial responses and may not hold up.

test: qHTS assay for MDR1-selective chemotherapeutics: Primary screen using the drug-selected MDR subline cells KB-V1; conditions: KB-V1 MDR cells viability, CellTiter-Glo, 72 h; activity change, negative = cytotoxicity: at 46.1 µM (top of the series); also: nearly all actives have a fitted effect of over 60% in size
Summary of the method: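 Readout: CellTiter-Glo luminescence, 10 min after addition. Cells: KB-V1 MDR subline, 72 h at 37 degrees C with compound. Analysis: corrected, normalized data fitted to concentration-effect curves.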
% is scaled to controls: 0 for no effect and ±100 for the full control effect; potency is read from the fitted curve at half-maximal effect.

Row | Structure (SMILES) | activity change, negative = cytotoxicity | Potency
1 | CC(=O)NNc1nc(-c2ccccc2)c2cc(Cl)ccc2n1 | inactive: 2.68% | 
2 | O=C(NCC(c1ccc(F)cc1)N1CCOCC1)c1ccco1 (configuration not stated) | inactive: 3.54% | 
3 | CCSc1nnc(-c2ccc(C)cc2)c2ccccc12 |  | inconclusive: 20.6 µM [cytotoxic, partial curve]
4 | CCOC(=O)c1cccc(Nc2ccc3cc(S(=O)(=O)N4CCCCC4)ccc3n2)c1 |  | inconclusive: 20.6 µM [cytotoxic, single point]
5 | O=C(NNC(=O)c1ccc(Oc2ccc(C3SCCS3)cc2)o1)c1ccc(Cl)cc1 |  | inconclusive: 2.06 µM [cytotoxic, full curve]
6 | Cc1ccc(S(=O)(=O)N2CCCCC2)cc1NC(=O)CCc1nc2ccccc2c(=O)[nH]1 |  | inconclusive: 18.4 µM [rising, single point]
7 | CSCCC(c1nc2ccccc2[nH]1)n1c(=O)c(-c2ccco2)nc2ccccc21 (configuration not stated) |  | inconclusive: 8.2 µM [cytotoxic, partial curve, poor fit]
8 | Cc1ccc(C(=O)N2CCCC(C(=O)Nc3cccc(-c4ccc(F)cc4)c3)C2)cn1 (configuration not stated) |  | inconclusive: 32.6 µM [cytotoxic, single point]
9 | COc1cccc(CNC(=O)c2ccc(NC(=O)N3CCCCc4ccccc43)cc2)c1 | inactive: -8.16% | 
10 | Cc1cccc(N(C)c2ncnc3onc(-c4ccc(F)cc4)c23)c1C |  | inconclusive: 18.4 µM [cytotoxic, partial curve]
11 | Cc1ccc(S(=O)(=O)NCc2ccc(N3CCN(C(=O)OC(C)(C)C)CC3)cc2)cc1 |  | inconclusive: 0.461 µM [cytotoxic, full curve, poor fit]
12 | Cc1cc(C)c(NC(=S)NCCCSC2CCCCC2)c(C)c1 |  | inconclusive: 23.1 µM [cytotoxic, single point]
13 | CCCCN1CC(=O)N2[C@H]3c4ccc(OC)cc4OC[C@@H]3[C@H](c3ccccc3)[C@]2(C)C1=O | inactive: 0% | 
14 | O=C1C(c2ccccc2)=[N+]([O-])c2ccccc21 | inconclusive: -33.8% [cytotoxic] | 
15 | COc1cccc(C2=NOC(C(=O)NCc3ccc(F)cc3)C2)c1 (configuration not stated) |  | inconclusive: 18.4 µM [cytotoxic, single point]
16 | CCOC(=O)NC(=O)CSc1nc(-c2ccc(C)c(C)c2)cn1-c1ccccc1 |  | inconclusive: 7.31 µM [cytotoxic, partial curve]
17 | Cc1ccc(S(=O)(=O)N(C)c2ccc(OCC(=O)N3CCCC(C(F)(F)F)C3)cc2)cc1 (configuration not stated) |  | inconclusive: 5.17 µM [cytotoxic, partial curve]
18 | COc1cccc(-c2c(C(=O)N/N=C(\C)c3ccncc3)nnn2-c2nonc2N)c1 |  | inconclusive: 29.1 µM [rising, single point]
19 | Cn1c(=O)n(C)c2cc(NC(=O)c3cccc([N+](=O)[O-])c3)c(Br)cc21 |  | inconclusive: 8.2 µM [cytotoxic, partial curve]
20 | CCCOc1ccc(N2C(=O)CC(NCc3cccs3)C2=O)cc1 (configuration not stated) |  | inconclusive: 32.6 µM [rising, partial curve, poor fit]
21 | Cc1ccc(-n2sc3ccccc3c2=O)cc1 |  | inconclusive: 18.4 µM [cytotoxic, single point]
22 | Cc1ccc(-c2nc3ccc(C)cn3c2Cc2ccccc2C(F)(F)F)cc1 | inconclusive: -48.5% [cytotoxic] | 
23 | COc1ccc(NC(=S)N(CCCN2CCCC(C)C2)Cc2cccs2)cc1 (configuration not stated) | inactive: -26.9% | 
24 | O=C(Nc1ccc(N2CCOCC2)cc1)c1cc2c(s1)CCCC2 | inactive: 0% | 

Row | Structure (SMILES) | activity change, negative = cytotoxicity | Potency
25 | O=C(Nc1nc2cc3c(cc2s1)OCCO3)c1cccc(N2C(=O)CCC2=O)c1 | inconclusive: 57.5% | 
26 | O=C(O)/C(=C\c1ccc2ccccc2c1)c1cccc2ccccc12 |  | inconclusive: 16.4 µM [rising, partial curve, poor fit]
27 | COC(=O)c1ccccc1NC(=O)Nc1cc(C(C)(C)C)on1 |  | inconclusive: 18.4 µM [cytotoxic, partial curve, poor fit]
28 | COc1ccccc1Cc1c(C2CCCCC2)nc2cc(C)c(Br)c(C)n12 |  | inconclusive: 14.6 µM [cytotoxic, partial curve]
29 | CN1CCN(CC(=O)Nc2cc(N(C)C)nc3ccccc23)CC1 | inactive: -13.1% | 
30 | O=C(Nc1ccccc1)NC1CCN(Cc2nnnn2C2CCCCC2)CC1 | inactive: 9.9% | 
31 | O=C(c1ccccc1)N1CCCC(C(=O)N2CCCCCC2)C1 (configuration not stated) |  | active: 20.6 µM
32 | O=C(CSc1ncnc2ccccc12)NCc1ccco1 | inactive: 9.2% | 
33 | O=C(COC(=O)c1ccc(O)cc1O)NC12CC3CC(CC(C3)C1)C2 | inactive: 0.981% | 
34 | CC(=O)Nc1ccc(NC(=O)c2cc(C3CC3)nc3c2cnn3C(C)C)cc1 | inactive: 11.2% | 
35 | O=C(O)CCC(=O)N1CCc2c([nH]c3ccccc23)C1C(F)(F)F (configuration not stated) |  | inconclusive: 32.6 µM [rising, single point]
36 | COc1ccc(C)cc1-n1nnnc1SCC(=O)NC1CC1 |  | inconclusive: 16.4 µM [cytotoxic, partial curve, poor fit]
37 | CC1(C)NC(=O)N(CC(O)CN(c2cccc([N+](=O)[O-])c2)S(=O)(=O)c2ccccc2)C1=O (configuration not stated) |  | inconclusive: 23.1 µM [rising, single point]
38 | CCOC(=O)C1(C)CCN1C(=O)c1ccc(OC)c(F)c1 (configuration not stated) | inactive: 4.91% | 
39 | O=C(OCC(=O)N1CCc2ccccc21)c1ccc([N+](=O)[O-])o1 | inactive: -10.7% | 
40 | CCCCCOc1ccc(NC(=O)C(=O)NCC2CCCN2CC)cc1 (configuration not stated) | inactive: -4.67% | 
41 | Cc1ccc(NS(=O)(=O)c2cccc(C(=O)NCC3CCCO3)c2)cc1 (configuration not stated) |  | inconclusive: 23.1 µM [cytotoxic, single point]
42 | CCc1nc(SCC(=O)Nc2ccc(NC(C)=O)cc2)n[nH]1 | inactive: 12.7% | 
43 | Cc1cccc(-n2c3nc(=O)n(C)c(=O)c-3cc3c(Cl)cccc32)c1C | inactive: -3.57% | 
44 | O=C(NCc1ccccc1)c1cccc(COc2cc(Cl)ccc2Cl)c1 |  | active: 20.6 µM
45 | COc1ccc(NC(=O)CN(Cc2ccccc2)S(C)(=O)=O)c(OC)c1 | inactive: -28.4% | 
46 | CCNC(=O)CN(c1ccc(F)cc1)S(=O)(=O)c1ccc2c(c1)OCCO2 | inactive: -5.72% | 
47 | CCCCN(C)C(=O)CC(NS(=O)(=O)c1ccc(NC(C)=O)cc1)C(C)C (configuration not stated) |  | inconclusive: 29.1 µM [rising, single point]
48 | NC(=O)c1ccc(NCC2COc3ccccc3O2)c([N+](=O)[O-])c1 (configuration not stated) |  | inconclusive: 25.9 µM [cytotoxic, partial curve, poor fit]

Row | Structure (SMILES) | activity change, negative = cytotoxicity | Potency
49 | CC(C)c1nc(N2CCOCC2)c(C#N)c2c1CCCC2 |  | inconclusive: 1.46 µM [cytotoxic, partial curve, poor fit]
50 | N/C(=N\c1nc2c(c(=O)[nH]1)CCCC2)Nc1ccccc1Sc1ccccc1 | inactive: -10.7% | 
51 | CCc1ccc(-c2ccc(SCC(=O)NCC3CCCO3)nn2)cc1 (configuration not stated) |  | inconclusive: 9.2 µM [cytotoxic, partial curve]
52 | CS(=O)(=O)N1CCCC(C(=O)Nc2ccc3c(c2)OCCO3)C1 (configuration not stated) | inactive: 6.31% | 
53 | COc1cc(CCC(N)c2cccc(O)c2)cc(OC)c1OC (configuration not stated) |  | inconclusive: 25.9 µM [cytotoxic, single point]
54 | COc1ccc(N(CC(=O)NCc2cccc(OC)c2)S(=O)(=O)c2c(C)noc2C)cc1 |  | active: 13 µM
55 | COc1ccc(NC(=O)Cn2c(=O)n(Cc3nc(-c4ccccc4)no3)c(=O)c3cc4c(cc32)OCO4)cc1Cl | inactive: -16.6% | 
56 | Cc1nc(Nc2ccccc2)sc1C(=O)Nc1ccccc1 | inactive: -14.3% | 
57 | COc1ccc(C(C)NC(=O)C2CCN(CCOc3ccc(Cl)cc3Cl)CC2)cc1OC (configuration not stated) |  | inconclusive: 16.4 µM [cytotoxic, partial curve]
58 | Cc1cc(C(=O)COC(=O)COc2ccc(C#N)cc2)c(C)n1C1CC1 |  | inconclusive: 5.8 µM [rising, partial curve, poor fit]
59 | CCCCNC(=O)[C@@H]1CC=C[C@@H]2CCN(C3CCCCC3)C(=O)[C@@H]21 |  | inconclusive: 13 µM [cytotoxic, partial curve]
60 | O=C(COc1ccc(C(=S)N2CCCC2)cc1)Nc1ccc(F)cc1 |  | inconclusive: 20.6 µM [cytotoxic, single point]
61 | CC(=O)C[C@H]1c2cc(C(F)(F)F)ccc2S(=O)(=O)N1c1ccc(N(C)C)cc1 |  | inconclusive: 18.4 µM [cytotoxic, single point]
62 | CCc1cccc2c(C(=O)CN3C(=O)NC4(CCCCCC4)C3=O)c[nH]c12 |  | inconclusive: 18.4 µM [cytotoxic, single point]
63 | COc1ccc2cc(CCNC(=O)c3cc4ccccc4o3)c(=O)[nH]c2c1 | inactive: -18.9% | 
64 | COc1cccc(CNCc2ccccc2Br)c1OC |  | inconclusive: 13 µM [cytotoxic, partial curve]
65 | Cc1cccc(NC(=S)NC(=O)/C=C/c2ccco2)c1 |  | active: 5.17 µM
66 | CC(C)(C)c1ccc(OCC(=O)Nc2ccncc2)c(Br)c1 |  | inconclusive: 3.66 µM [cytotoxic, full curve, poor fit]
67 | COc1ccc(Br)cc1CNC(=O)CN1CCSc2ccccc21 |  | inconclusive: 18.4 µM [cytotoxic, single point]
68 | Cc1ccccc1OCC(=O)OCC(=O)Nc1ccc2c(c1)OCCO2 |  | inconclusive: 4.11 µM [rising, partial curve]
69 | CCNc1nc(NCc2ccccc2)nc(SCC(N)=O)n1 | inactive: 0.0233% | 
70 | CCCC1(c2ccccc2)NC(=O)N(CC(=O)NCc2ccc(OC)cc2)C1=O (configuration not stated) |  | inconclusive: 29.1 µM [cytotoxic, single point]
71 | COc1cc2c(cc1OC)C(c1ccc(Br)cc1)CC(=O)N2 (configuration not stated) | inactive: 21.9% | 
72 | CN(C)c1ncnc2c1ccn2C1OC(CO)C(O)C1O (configuration not stated) |  | inconclusive: 1.16 µM [cytotoxic, partial curve, poor fit]

One compound at a time, as listed above.
`COc1ccc(NC(=S)N(CCCN2CCCC(C)C2)Cc2cccs2)cc1` (configuration not stated) as listed: activity change, negative = cytotoxicity: inactive: -26.9%
`O=C(NNC(=O)c1ccc(Oc2ccc(C3SCCS3)cc2)o1)c1ccc(Cl)cc1` as listed: Potency: inconclusive: 2.06 µM [cytotoxic, full curve]
`CCc1ccc(-c2ccc(SCC(=O)NCC3CCCO3)nn2)cc1` (configuration not stated) as listed: Potency: inconclusive: 9.2 µM [cytotoxic, partial curve]
`COc1ccc(C)cc1-n1nnnc1SCC(=O)NC1CC1` as listed: Potency: inconclusive: 16.4 µM [cytotoxic, partial curve, poor fit]
